# Source: patent publication US9060994B2, “Combination therapy with interferon and andrographolides for Multiple Sclerosis” (Inno Biosciences, S.p.A., priority 2011, dated 2015)
# At least one structure is not confirmed: it was looked up by name or label, or the drawing left a doubt.
# Key:
# Jurkat cells = assay: Cytokine production in Jurkat cells; assay type: cell-based
# ERK1/2 and ERK5 = ERK1/2 and ERK5 phosphorylation in T-cells using anti-CD3 or PMA/Iono; assay type: cell-based
# NFAT = assay: NFAT-luc reporter; assay type: cell-based
# [1] = tested on: MOG-immunized C57BL/6J mice; assay: MOG-induced EAE mice, clinical score; assay type: in vivo; conditions: 2 mg/kg s.c. daily, compared with saline
# [2] = Model of systemic lupus erythematous; conditions: in vivo
# interferon γ = conditions: T-cells stimulated with concanavalin A; cited from earlier work
# [3] = tested on: Nuclear factor kappaB (NF-κB); conditions: cited from earlier work
# T cell = conditions: in vitro, in response to allogenic stimulation; cited from earlier work
# dendritic cells (DCs) = conditions: cited from earlier work
# macrophages = conditions: cited from earlier work
# ERK1/2 = conditions: cited from earlier work
# murine macrophages = conditions: concentration-dependent; cited from earlier work
# mice = conditions: cited from earlier work
# EAE mice = conditions: cited from earlier work
smiles,measurement,setting,value
"C=C1CC[C@@H]2[C@](C)(CO)[C@H](O)CC[C@@]2(C)[C@@H]1C/C=C1/C(=O)OC[C@H]1O [andrographolide, 3-(2-(Decahydro-6-hydroxy-5-(hydroxymethyl)-5,8a-dimethyl-2-methylenenaphthyl)ethylidene)dihydro-4-hydroxyfuran-2(3H)-one]",cytokine production,Jurkat cells,can interfere with cytokine production
same,phosphorylation of ERK1/2 and ERK5,ERK1/2 and ERK5,can reduce phosphorylation of ERK1/2 and ERK5
same,NFAT activation,NFAT,can interfere with NFAT activation
same,clinical scores,[1],important improvement in clinical scores
same,"susceptibility, symptoms, anti-nuclear antibodies and kidney damage of systemic lupus erythematous",[2],"reduced the susceptibility, prevented the symptoms and reduced anti-nuclear antibodies and kidney damage"
same,production of interferon γ,interferon γ,reduces production of interferon γ
same,NF-κB binding to DNA,[3],can interfere with the Nuclear factor kappaB (NF-κB) binding to DNA
same,T cell proliferation and cytokine release,T cell,able to interfere with T cell proliferation and cytokine release
same,T cell activation by dendritic cells (DCs),dendritic cells (DCs); DCs exposed to andrographolide during antigen pulse,completely abolished
same,maturation of DCs and ability to present antigens to T cells,dendritic cells (DCs),able to interfere with maturation of DCs
same,macrophages migration toward C5a,macrophages,in dose-dependent manner inhibited macrophages migration
same,"C5a-stimulated phosphorylation of ERK1/2, MEK1/2 and Akt",ERK1/2,significantly attenuated
same,"TNF-alpha, IL-12a and IL-12b at mRNA level; production of TNF-alpha and IL-12p70 proteins",murine macrophages,inhibitory effect
same,antibody response to a thymus-dependent antigen and delayed-type hypersensitivity,mice,drastically diminished
same,EAE symptoms,EAE mice,significantly reduce EAE symptoms
